# PubChem BioAssay AID248 (DTP/NCI, 2004)
# The list shows only some results of the screen, not a fair sample: it gathers tests that were run many times, whatever their T/C, doses with no T/C, and many T/C values between a quarter and a half above the control. Further doses and runs are listed elsewhere. T/C gives the treated animals as a percentage of the vehicle group. Some entries give survivors of the animals treated and no T/C: the source holds a T/C of zero for them, seemingly a mark for toxic or unscored doses. Some doses without a T/C left all or most animals alive at the check, yet need not have been tolerated: survival well below the control is almost never listed, so the zero probably covers shortened survival too. Counts of survivors are from the toxicity check (mostly the fifth day) where no day follows; animals may have died later. Schedule codes are those of the source, read here as Q, the interval in days (D) or hours (H), X, the number of doses. Where survival is the endpoint, the PubChem record calls one and a half times the control and up active, and a quarter to a half above the control has no call in these data; cut-offs in other NCI protocols can differ. Some doses were run more than once; the results are listed from low to high. Counts like (3×) say how often a value occurs here.
# Tested on: L1210 leukemia ip in BDF1 mice, survival T/C
# Assay: NCI In Vivo Anticancer Drug Screen. Data for tumor model L1210 Leukemia (intraperitoneal) in B6D2F1 (BDF1) mice
# Conditions: T/C endpoint: mean survival time, higher T/C = longer survival
# [1] = dose: 400.0 mg/kg/injection, schedule: Q01DX009 (ip), vehicle: Klucel (hydroxypropylcellulose) (HPC)
# [2] = dose: 400.0 mg/kg/injection, schedule: Q01DX001 (ip), vehicle: saline
# [3] = dose: 50.0 mg/kg/injection, schedule: Q01DX009 (ip), vehicle: saline
# [4] = dose: 100.0 mg/kg/injection, schedule: Q01DX009 (ip), vehicle: saline
# [5] = dose: 200.0 mg/kg/injection, schedule: Q01DX009 (ip), vehicle: saline
# [6] = dose: 100.0 mg/kg/injection, schedule: Q04DX003 (ip), vehicle: saline with Tween-80
# [7] = dose: 200.0 mg/kg/injection, schedule: Q04DX003 (ip), vehicle: saline with Tween-80
# [8] = dose: 400.0 mg/kg/injection, schedule: Q04DX003 (ip), vehicle: saline with Tween-80
# [9] = dose: 150.0 mg/kg/injection, schedule: Q01DX009 (ip), vehicle: Klucel (hydroxypropylcellulose) (HPC)
# [10] = dose: 300.0 mg/kg/injection, schedule: Q01DX009 (ip), vehicle: Klucel (hydroxypropylcellulose) (HPC)
smiles,measurement,setting,value
O=NN(CCCl)C(=O)NC1CCC(Cl)CC1 (centres undefined),T/C,"dose: 18.0 mg/kg/injection, schedule: Q01DX001 (ip), vehicle: Klucel (hydroxypropylcellulose) (HPC)",147 % of control
same,survivor count,"dose: 200.0 mg/kg/injection, schedule: Q01DX001 (ip), vehicle: Klucel (hydroxypropylcellulose) (HPC)",10 of 10
same,survivor count,"dose: 300.0 mg/kg/injection, schedule: Q01DX001 (ip), vehicle: Klucel (hydroxypropylcellulose) (HPC)",4 of 10
CNC(=O)n1cnc(N)n1 (tested in a mixture with another compound),survivor count,[1],3 of 6
N#Cc1ccc[n+](Cc2ccc3c(c2)OCO3)c1,survivor count,"dose: 300.0 mg/kg/injection, schedule: Q01DX001 (ip), vehicle: saline",0 of 6
O=C(O)CCC1CCC(=O)NC1=O (centres undefined),survivor count,"dose: 100.0 mg/kg/injection, schedule: Q04DX002 (ip), vehicle: Klucel (hydroxypropylcellulose) (HPC)",3 of 3
NC(=S)N/N=C\c1ccc(/C=N/NC(N)=S)cc1,survivor count,[2],3 of 4
[N-]=[N+]=C1Cc2ccccc2C1=O,survivor count,[1],6 of 6
CCN(CC)/N=N/c1[nH]ncc1C(N)=O,T/C,"dose: 100.0 mg/kg/injection, schedule: Q01DX009 (ip), vehicle: saline with Tween-80",126 % of control
same,T/C,"dose: 133.0 mg/kg/injection, schedule: Q01DX009 (ip), vehicle: saline with Tween-80",132 % of control
same,T/C,"dose: 200.0 mg/kg/injection, schedule: Q01DX009 (ip), vehicle: saline with Tween-80, evaluated on day 20",144 % of control
same,T/C,"dose: 200.0 mg/kg/injection, schedule: Q01DX009 (ip), vehicle: saline with Tween-80, evaluated on day 30",126 % of control
same,survivor count,"dose: 400.0 mg/kg/injection, schedule: Q01DX009 (ip), vehicle: saline with Tween-80",6 of 6
CSc1nc(N)nc2ncc(CN(C)c3ccc(C(=O)O)cc3)nc12,survivor count,"dose: 50.0 mg/kg/injection, schedule: Q01DX009 (ip), vehicle: DMSO",6 of 6
same,survivor count,"dose: 100.0 mg/kg/injection, schedule: Q01DX001 (ip), vehicle: DMSO",2 of 6
same,survivor count,"dose: 200.0 mg/kg/injection, schedule: Q01DX001 (ip), vehicle: DMSO",3 of 6
C[CH2][Sn](/[CH]=C\CO)([CH2]C)[CH2]C,survivor count,"dose: 3.12 mg/kg/injection, schedule: Q01DX009 (ip), vehicle: saline",0 of 3
same,survivor count,"dose: 6.25 mg/kg/injection, schedule: Q01DX009 (ip), vehicle: saline",2 of 3
same,survivor count,"dose: 12.5 mg/kg/injection, schedule: Q01DX009 (ip), vehicle: saline",0 of 3
same,survivor count,[3],0 of 3
same,survivor count,[4],0 of 3
same,survivor count,[5],0 of 3
CCCCSCc1nc2nc(Cl)c(Cl)nc2[nH]1,survivor count,"dose: 200.0 mg/kg/injection, schedule: Q01DX009 (ip), vehicle: saline with Tween-80",3 of 6
Cc1cccc(C)c1OCC1=NCCN1,survivor count,[4],0 of 6
same,survivor count,[5],0 of 6
same,survivor count,"dose: 400.0 mg/kg/injection, schedule: Q01DX009 (ip), vehicle: saline",0 of 6
CC(C#N)OC(=O)c1ccccc1 (centres undefined),survivor count,"dose: 50.0 mg/kg/injection, schedule: Q01DX001 (ip), vehicle: saline",2 of 6
same,survivor count,"dose: 55.0 mg/kg/injection, schedule: Q04DX003 (ip), vehicle: saline",0 of 6
same,survivor count,"dose: 80.0 mg/kg/injection, schedule: Q01DX009 (ip), vehicle: acetone",0 of 6
same,survivor count,"dose: 80.0 mg/kg/injection, schedule: Q04DX003 (ip), vehicle: saline",1 of 6
same,survivor count,"dose: 100.0 mg/kg/injection, schedule: Q01DX001 (ip), vehicle: acetone",0 of 6
same,survivor count,"dose: 120.0 mg/kg/injection, schedule: Q01DX009 (ip), vehicle: acetone",0 of 6
same,survivor count,"dose: 200.0 mg/kg/injection, schedule: Q01DX001 (ip), vehicle: acetone",0 of 6
same,survivor count,"dose: 400.0 mg/kg/injection, schedule: Q01DX001 (ip), vehicle: acetone",0 of 6
c1ccc(CC(Cc2ccccc2)NC2=NCCO2)cc1,survivor count,[6],1 of 6
same,survivor count,[7],1 of 6
same,survivor count,[8],0 of 6
CC(C)(C)OOC(=O)c1ccccc1,survivor count,[9],6 of 6
same,survivor count,[10],6 of 6
C/C=C/S(=O)(=O)c1ccccc1,survivor count,"dose: 150.0 mg/kg/injection, schedule: Q01DX001 (ip), vehicle: carboxymethylcellulose (CMC)",3 of 6
same,survivor count,"dose: 300.0 mg/kg/injection, schedule: Q01DX001 (ip), vehicle: carboxymethylcellulose (CMC)",2 of 6
Cc1ccc2c(ccc(/C=C/c3ccc(O)c4ncccc34)[n+]2C)c1,T/C,"dose: 50.0 mg/kg/injection, schedule: Q01DX009 (ip), vehicle: Klucel (hydroxypropylcellulose) (HPC)",126 % of control
same,T/C,"dose: 75.0 mg/kg/injection, schedule: Q01DX009 (ip), vehicle: Klucel (hydroxypropylcellulose) (HPC)",126 % of control
same,survivor count,[9],2 of 6
same,survivor count,[10],0 of 6
same,survivor count,"dose: 400.0 mg/kg/injection, schedule: Q04DX003 (ip), vehicle: Klucel (hydroxypropylcellulose) (HPC)",1 of 6
same,survivor count,"dose: 800.0 mg/kg/injection, schedule: Q04DX003 (ip), vehicle: Klucel (hydroxypropylcellulose) (HPC)",0 of 6
CCN(CC)CCOC(=O)c1[nH]cnc1/N=N\N(C)C,survivor count,[2],2 of 4
[N-]=[N+]=NC(c1ccccc1)S(=O)c1ccccc1 (centres undefined),survivor count,"dose: 400.0 mg/kg/injection, schedule: Q04DX002 (ip), vehicle: Klucel (hydroxypropylcellulose) (HPC)",1 of 3
O=C(Nc1ccc(Cl)cc1)OCC#CCOC(=O)Nc1ccc(Cl)cc1,survivor count,[7],6 of 6
CCCCCOC(=S)S,survivor count,[2],1 of 4
Cc1cccc(C(=O)NNC(=O)C(=O)NNC(=O)c2cccc(C)c2)c1,T/C,[6],"93, 95 (2×), 97 % of control"
same,T/C,[7],"90, 103, 104 % of control"
same,survivor count,[7],6 of 6
same,T/C,[8],"90, 92 (2×), 98 % of control"
O=C(Nc1cccc(F)c1)N(C1CCCCC1)C1CCCCC1,survivor count,"dose: 25.0 mg/kg/injection, schedule: Q01DX009 (ip), vehicle: gum acacia",6 of 6
same,survivor count,"dose: 100.0 mg/kg/injection, schedule: Q01DX009 (ip), vehicle: gum acacia",6 of 6
same,survivor count,"dose: 200.0 mg/kg/injection, schedule: Q01DX009 (ip), vehicle: gum acacia",6 of 6
CC1(/C=N/Nc2nnc(N/N=C/C3(C)CCC=CO3)c3ccccc23)CCC=CO1 (centres undefined),survivor count,"dose: 400.0 mg/kg/injection, schedule: Q01DX001 (ip), vehicle: carboxymethylcellulose (CMC)",0 of 4
CN1CCCCC1CCN1c2ccccc2Sc2ccc(S(C)=O)cc21 (centres undefined),T/C,[3],130 % of control
same,survivor count,[3],0 of 6
same,survivor count,[4],0 of 6
same,survivor count,"dose: 200.0 mg/kg/injection, schedule: Q04DX003 (ip), vehicle: saline",0 of 6
same,survivor count,"dose: 400.0 mg/kg/injection, schedule: Q04DX003 (ip), vehicle: saline",0 of 6
